Measurements: the supplement of paper PMC10849652
This is one part of the list.

Protein sequences, listed by entry. Tags and fused reporters are not part of them. Lines headed by an entry give the natural chain unless they say otherwise; changes in a name come on top.
UniProt Q5T1C6: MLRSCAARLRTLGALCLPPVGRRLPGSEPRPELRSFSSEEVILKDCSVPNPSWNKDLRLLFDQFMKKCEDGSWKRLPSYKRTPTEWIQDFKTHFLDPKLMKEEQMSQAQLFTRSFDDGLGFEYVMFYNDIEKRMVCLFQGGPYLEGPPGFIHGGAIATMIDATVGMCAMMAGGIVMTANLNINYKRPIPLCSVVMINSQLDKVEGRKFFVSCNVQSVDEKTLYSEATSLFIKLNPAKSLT
UniProt Q6I9Y2: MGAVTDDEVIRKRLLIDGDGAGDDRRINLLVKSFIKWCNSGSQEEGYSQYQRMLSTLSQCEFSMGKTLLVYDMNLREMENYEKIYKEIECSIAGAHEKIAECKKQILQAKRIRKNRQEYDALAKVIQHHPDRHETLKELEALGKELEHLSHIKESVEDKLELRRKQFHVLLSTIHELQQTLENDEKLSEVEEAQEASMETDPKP
UniProt Q8WUY1: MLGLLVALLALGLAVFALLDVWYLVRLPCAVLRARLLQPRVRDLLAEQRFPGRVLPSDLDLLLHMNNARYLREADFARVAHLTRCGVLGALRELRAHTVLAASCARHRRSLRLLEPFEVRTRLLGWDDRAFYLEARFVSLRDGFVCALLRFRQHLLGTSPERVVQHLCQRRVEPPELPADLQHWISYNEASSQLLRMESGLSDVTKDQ
UniProt Q9HA65: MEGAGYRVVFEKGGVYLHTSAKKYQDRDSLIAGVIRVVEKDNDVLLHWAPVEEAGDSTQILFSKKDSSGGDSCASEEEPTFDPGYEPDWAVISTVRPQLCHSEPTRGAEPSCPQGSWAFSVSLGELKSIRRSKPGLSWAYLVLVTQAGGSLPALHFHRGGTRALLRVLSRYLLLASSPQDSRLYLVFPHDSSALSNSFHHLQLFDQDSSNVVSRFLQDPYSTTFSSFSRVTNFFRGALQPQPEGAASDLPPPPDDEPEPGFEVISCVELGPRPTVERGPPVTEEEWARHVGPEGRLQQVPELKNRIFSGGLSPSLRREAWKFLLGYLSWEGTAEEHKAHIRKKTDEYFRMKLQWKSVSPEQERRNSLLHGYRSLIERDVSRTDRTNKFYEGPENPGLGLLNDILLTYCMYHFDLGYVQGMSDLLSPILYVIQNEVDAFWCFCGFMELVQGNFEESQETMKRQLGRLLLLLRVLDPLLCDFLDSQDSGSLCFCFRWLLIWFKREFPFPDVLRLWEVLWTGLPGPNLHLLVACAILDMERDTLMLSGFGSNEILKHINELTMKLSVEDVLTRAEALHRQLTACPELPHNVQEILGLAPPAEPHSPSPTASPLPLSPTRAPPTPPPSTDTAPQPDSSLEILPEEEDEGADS
UniProt P07996: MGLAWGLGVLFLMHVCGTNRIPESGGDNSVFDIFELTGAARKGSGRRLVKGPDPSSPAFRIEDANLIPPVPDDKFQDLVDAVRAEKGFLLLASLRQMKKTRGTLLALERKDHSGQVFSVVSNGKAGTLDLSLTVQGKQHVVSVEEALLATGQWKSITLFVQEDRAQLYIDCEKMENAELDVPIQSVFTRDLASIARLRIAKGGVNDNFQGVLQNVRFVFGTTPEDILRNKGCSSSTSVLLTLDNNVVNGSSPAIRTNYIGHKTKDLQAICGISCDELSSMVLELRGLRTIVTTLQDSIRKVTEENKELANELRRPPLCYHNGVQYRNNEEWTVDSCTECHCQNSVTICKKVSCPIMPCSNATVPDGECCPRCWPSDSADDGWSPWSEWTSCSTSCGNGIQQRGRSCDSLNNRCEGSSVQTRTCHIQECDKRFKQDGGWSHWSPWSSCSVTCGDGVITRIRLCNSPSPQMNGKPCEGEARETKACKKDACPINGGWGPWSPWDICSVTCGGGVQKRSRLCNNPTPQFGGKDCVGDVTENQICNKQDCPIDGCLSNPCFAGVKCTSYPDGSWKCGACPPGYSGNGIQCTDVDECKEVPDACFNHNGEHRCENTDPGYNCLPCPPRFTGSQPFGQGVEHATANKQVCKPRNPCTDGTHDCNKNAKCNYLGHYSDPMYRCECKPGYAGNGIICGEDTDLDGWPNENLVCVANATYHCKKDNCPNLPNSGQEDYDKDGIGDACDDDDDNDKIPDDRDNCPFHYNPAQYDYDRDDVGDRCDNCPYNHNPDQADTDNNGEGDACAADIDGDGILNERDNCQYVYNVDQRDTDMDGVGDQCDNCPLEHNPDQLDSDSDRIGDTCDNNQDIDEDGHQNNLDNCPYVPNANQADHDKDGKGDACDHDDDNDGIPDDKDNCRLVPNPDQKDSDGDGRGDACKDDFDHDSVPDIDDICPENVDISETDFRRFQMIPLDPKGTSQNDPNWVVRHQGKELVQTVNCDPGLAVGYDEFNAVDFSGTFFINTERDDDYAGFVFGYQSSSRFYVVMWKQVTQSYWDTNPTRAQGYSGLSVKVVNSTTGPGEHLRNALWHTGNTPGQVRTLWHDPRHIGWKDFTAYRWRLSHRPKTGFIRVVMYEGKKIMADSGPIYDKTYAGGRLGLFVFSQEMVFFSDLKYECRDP
UniProt Q86XR7, whole entry, looked up: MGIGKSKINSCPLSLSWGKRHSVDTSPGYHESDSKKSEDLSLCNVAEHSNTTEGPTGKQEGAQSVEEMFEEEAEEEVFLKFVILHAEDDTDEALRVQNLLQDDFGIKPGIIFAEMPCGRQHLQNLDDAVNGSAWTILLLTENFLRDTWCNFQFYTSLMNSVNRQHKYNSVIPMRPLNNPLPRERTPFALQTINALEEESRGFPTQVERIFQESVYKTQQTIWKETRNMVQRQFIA
UniProt Q5JTD0: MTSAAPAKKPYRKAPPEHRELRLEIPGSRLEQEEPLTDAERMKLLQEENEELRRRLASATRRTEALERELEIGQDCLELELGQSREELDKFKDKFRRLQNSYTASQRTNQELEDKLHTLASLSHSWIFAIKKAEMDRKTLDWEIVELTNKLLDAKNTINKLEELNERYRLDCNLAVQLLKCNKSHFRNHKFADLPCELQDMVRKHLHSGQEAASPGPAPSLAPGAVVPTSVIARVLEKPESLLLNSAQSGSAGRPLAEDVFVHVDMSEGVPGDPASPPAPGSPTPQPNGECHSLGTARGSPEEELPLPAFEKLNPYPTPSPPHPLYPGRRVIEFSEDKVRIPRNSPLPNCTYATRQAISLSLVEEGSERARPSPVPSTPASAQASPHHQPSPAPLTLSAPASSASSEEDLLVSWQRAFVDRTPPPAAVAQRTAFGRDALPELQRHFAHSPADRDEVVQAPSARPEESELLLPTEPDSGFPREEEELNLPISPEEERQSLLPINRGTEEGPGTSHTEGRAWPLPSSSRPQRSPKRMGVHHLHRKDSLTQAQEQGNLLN
UniProt Q3LXA3: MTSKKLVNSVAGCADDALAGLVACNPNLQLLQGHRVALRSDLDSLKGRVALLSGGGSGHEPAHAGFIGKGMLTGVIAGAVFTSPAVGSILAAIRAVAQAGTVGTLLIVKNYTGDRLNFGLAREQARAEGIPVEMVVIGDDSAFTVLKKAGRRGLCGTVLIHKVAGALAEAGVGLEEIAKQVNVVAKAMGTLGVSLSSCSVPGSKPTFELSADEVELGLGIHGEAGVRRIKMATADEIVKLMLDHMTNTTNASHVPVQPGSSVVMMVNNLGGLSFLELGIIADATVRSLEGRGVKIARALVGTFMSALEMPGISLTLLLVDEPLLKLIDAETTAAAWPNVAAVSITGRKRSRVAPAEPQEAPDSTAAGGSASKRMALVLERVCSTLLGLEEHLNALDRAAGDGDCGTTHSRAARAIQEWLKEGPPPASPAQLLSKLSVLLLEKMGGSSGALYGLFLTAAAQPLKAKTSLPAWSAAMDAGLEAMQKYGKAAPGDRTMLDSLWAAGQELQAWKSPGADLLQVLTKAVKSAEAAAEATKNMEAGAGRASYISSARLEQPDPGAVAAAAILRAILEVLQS
UniProt Q96BS2: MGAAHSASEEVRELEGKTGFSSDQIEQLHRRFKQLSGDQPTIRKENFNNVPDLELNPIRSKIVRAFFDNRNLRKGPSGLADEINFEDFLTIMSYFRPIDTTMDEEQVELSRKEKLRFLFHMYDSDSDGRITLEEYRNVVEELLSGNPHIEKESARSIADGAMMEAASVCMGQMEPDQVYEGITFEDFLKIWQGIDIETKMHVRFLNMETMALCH
UniProt O14776: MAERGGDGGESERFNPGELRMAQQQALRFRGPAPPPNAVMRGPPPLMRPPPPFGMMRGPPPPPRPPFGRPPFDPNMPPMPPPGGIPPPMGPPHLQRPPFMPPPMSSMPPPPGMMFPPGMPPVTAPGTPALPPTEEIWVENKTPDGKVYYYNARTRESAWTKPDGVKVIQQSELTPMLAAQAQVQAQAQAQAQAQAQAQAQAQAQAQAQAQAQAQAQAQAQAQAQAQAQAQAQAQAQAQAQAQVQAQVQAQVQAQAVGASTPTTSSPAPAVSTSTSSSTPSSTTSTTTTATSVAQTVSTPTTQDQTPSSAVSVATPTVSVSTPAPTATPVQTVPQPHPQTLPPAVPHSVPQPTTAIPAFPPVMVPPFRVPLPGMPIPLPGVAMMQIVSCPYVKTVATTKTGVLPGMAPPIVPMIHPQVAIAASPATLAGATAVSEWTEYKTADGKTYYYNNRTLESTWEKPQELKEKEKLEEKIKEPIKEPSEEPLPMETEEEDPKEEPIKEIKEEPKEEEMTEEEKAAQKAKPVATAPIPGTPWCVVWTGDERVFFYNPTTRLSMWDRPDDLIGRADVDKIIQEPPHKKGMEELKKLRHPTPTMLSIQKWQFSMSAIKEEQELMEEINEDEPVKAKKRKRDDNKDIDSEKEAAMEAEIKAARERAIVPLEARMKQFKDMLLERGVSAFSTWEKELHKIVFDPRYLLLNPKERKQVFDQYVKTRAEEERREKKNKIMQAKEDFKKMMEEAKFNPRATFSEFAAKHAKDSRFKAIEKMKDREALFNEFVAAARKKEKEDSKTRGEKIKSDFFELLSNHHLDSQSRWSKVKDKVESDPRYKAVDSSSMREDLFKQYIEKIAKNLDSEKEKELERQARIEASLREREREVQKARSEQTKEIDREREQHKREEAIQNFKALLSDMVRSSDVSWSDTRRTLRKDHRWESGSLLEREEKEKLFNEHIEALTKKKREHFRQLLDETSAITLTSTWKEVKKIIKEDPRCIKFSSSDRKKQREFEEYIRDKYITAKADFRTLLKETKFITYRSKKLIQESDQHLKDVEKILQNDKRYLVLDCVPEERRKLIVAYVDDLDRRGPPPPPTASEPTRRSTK
UniProt Q15813: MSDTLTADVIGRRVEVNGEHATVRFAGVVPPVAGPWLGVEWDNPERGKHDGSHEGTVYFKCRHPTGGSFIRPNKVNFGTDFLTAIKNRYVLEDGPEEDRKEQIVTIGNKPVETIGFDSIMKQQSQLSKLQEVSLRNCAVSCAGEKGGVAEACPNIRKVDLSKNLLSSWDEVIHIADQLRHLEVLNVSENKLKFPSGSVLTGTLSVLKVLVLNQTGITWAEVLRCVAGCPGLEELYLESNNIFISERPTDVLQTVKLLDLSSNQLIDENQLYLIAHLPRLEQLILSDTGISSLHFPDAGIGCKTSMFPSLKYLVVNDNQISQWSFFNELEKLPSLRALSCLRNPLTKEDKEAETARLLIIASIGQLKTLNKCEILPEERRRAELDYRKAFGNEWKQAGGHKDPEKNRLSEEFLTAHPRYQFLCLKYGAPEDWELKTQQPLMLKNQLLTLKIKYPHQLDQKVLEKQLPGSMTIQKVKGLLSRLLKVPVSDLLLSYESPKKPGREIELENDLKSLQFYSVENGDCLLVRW
UniProt Q96BZ9: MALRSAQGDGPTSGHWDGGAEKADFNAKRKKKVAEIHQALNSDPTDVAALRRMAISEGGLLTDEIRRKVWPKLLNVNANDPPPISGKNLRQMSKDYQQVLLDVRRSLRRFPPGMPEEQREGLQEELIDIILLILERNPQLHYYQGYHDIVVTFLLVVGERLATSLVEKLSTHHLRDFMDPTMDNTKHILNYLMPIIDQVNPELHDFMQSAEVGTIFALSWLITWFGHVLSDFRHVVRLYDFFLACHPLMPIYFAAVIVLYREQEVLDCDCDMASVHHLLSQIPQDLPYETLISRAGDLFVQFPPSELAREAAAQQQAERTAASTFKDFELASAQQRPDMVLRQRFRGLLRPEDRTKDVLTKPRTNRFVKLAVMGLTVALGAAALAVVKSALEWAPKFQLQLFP
UniProt Q9Y5J9: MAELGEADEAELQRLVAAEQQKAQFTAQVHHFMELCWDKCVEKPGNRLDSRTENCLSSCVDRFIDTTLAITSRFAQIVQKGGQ
UniProt Q3ZCQ8: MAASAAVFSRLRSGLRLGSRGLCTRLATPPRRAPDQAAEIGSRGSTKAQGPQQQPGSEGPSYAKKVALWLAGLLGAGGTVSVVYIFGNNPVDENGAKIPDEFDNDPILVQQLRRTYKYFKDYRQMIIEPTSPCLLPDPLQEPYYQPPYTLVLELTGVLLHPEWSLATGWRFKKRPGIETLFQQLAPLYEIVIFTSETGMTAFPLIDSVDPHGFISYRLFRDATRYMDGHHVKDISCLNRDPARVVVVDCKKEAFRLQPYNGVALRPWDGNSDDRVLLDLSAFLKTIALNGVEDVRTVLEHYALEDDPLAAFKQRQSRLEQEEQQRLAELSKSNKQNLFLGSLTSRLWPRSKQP

Assays:
Assay in all cases: log2 fold change, soluble protein after heating vs DMSO (PISA); higher = thermal stabilisation; K562 cells, 10 uM, 30 min; active = over 0.2 and 3.5 SD of the protein, either way, in both replicates (recomputed)
bafetinib = compound: Cc1ccc(NC(=O)c2ccc(CN3CC[C@H](N(C)C)C3)c(C(F)(F)F)c2)cc1Nc1nccc(-c2cncnc2)n1 [bafetinib]
In short: (§1)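 Soluble protein was quantified by TMTpro 16plex LC-MS/MS after channel sums were equalised. It was obtained as the supernatant after 21,000xg for 90 min from pooled aliquots of K562 cells (2×10^6 cells/mL, 10 μM compound, 30 min) heated for 3 min across 48°C-58°C and extracted in PBS with 0.5% NP-40 at 4°C. Thermal stability values are relative to control samples and come from duplicates. They are given as log2 fold changes.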

[1] = compound: Cc1cccc(CC(=O)N2CCc3c2ccc(-c2cn(C)c4ncnc(N)c24)c3F)n1
In short: as §1

nilotinib = compound: Cc1cn(-c2cc(NC(=O)c3ccc(C)c(Nc4nccc(-c5cccnc5)n4)c3)cc(C(F)(F)F)c2)cn1 [nilotinib]
In short: as §1

[2] = compound: Cc1nc(Nc2n[nH]c3c2CN(C(=O)N[C@H](CN(C)C)c2ccccc2)C3(C)C)c2sccc2n1
In short: as §1

dasatinib = compound: Cc1nc(Nc2ncc(C(=O)Nc3c(C)cccc3Cl)s2)cc(N2CCN(CCO)CC2)n1 [dasatinib]
In short: as §1

[3] = compound: Cc1ncc(-c2ccnc(Nc3ccc(S(C)(=O)=O)cc3)n2)n1C(C)C
In short: as §1

[4] = compound: Cn1cc(-c2ccc3c(c2)CCN3C(=O)Cc2cccc(C(F)(F)F)c2)c2c(N)ncnc21
In short: as §1

[5] = compound: Cn1cc(-c2ccc3nnc(C(F)(F)c4ccc5ncccc5c4)n3n2)cn1
In short: as §1

tipifarnib = compound: Cn1cncc1[C@@](N)(c1ccc(Cl)cc1)c1ccc2c(c1)c(-c1cccc(Cl)c1)cc(=O)n2C [tipifarnib]
In short: as §1

mubritinib = compound: FC(F)(F)c1ccc(/C=C/c2nc(COc3ccc(CCCCn4ccnn4)cc3)co2)cc1 [mubritinib]
In short: as §1

Measured: log2 fold change

THEM4 (UniProt Q5T1C6)
inactive: bafetinib -0.041 | [1] -0.028 | nilotinib -0.005 | [2] -0.007 | dasatinib 0.06 | [3] -0.012 | [4] 0.043 | [5] 0.055 | tipifarnib 0.059 | mubritinib 0.018

THOC7 (UniProt Q6I9Y2)
inactive: bafetinib -0.015 | [1] 0.066 | nilotinib 0 | [2] 0.016 | dasatinib 0.03 | [3] -0.049 | [4] -0.014 | [5] -0.078 | tipifarnib 0.098 | mubritinib 0

TGS1 (UniProt Q96RS0)
inactive: bafetinib 0.027 | nilotinib -0.099 | [2] -0.177 | dasatinib -0.064 | [3] -0.138 | [4] -0.247 | [5] 0.029 | tipifarnib 0.029 | mubritinib -0.21

TK2 isoform 6 (UniProt O00142)
inactive: bafetinib -0.174 | [1] -0.172 | nilotinib -0.004 | [2] 0.114 | dasatinib 0.034 | [3] 0.007 | [4] -0.065 | [5] 0.006 | mubritinib -0.002

TIPIN (UniProt Q9BVW5)
inactive: bafetinib -0.07 | [1] 0.093 | nilotinib -0.013 | [2] 0.031 | dasatinib 0.026 | [3] -0.019 | [4] -0.07 | tipifarnib 0.074 | mubritinib 0.036

TEX2 isoform 2 (UniProt Q8IWB9)
inactive: bafetinib 0.094 | [1] 0.045 | dasatinib -0.049 | [4] 0.026 | [5] 0.065 | tipifarnib 0.028 | mubritinib 0.149

TFAP4 (UniProt Q01664)
inactive: bafetinib 0.108 | [1] 0.001 | nilotinib -0.01 | [2] -0.103 | [3] -0.182 | [4] 0.098 | [5] -0.034 | tipifarnib 0.001

THEM6 (UniProt Q8WUY1)
inactive: bafetinib -0.015 | [1] 0.005 | nilotinib 0.07 | [2] -0.015 | dasatinib 0.05 | [3] -0.065 | [4] 0.078 | [5] 0.043 | tipifarnib 0.09 | mubritinib 0.05

TBC1D17 (UniProt Q9HA65)
inactive: bafetinib -0.231 | [1] 0.001 | nilotinib -0.119 | [2] 0.045 | dasatinib -0.065 | [3] 0.094 | [4] -0.048 | [5] -0.183 | mubritinib 0.02

THBS1 (UniProt P07996)
inactive: bafetinib -0.29 | [1] -0.071 | nilotinib 0.042 | [2] 0.019 | dasatinib 0.022 | [3] 0.243 | [4] 0.2 | [5] 0.005 | tipifarnib 0.116 | mubritinib -0.156

TICAM2 isoform 2 (UniProt Q86XR7)
inactive: bafetinib -0.044 | [1] 0.009 | nilotinib -0.009 | [2] 0.039 | dasatinib 0.086 | [3] 0.002 | [4] 0.036 | [5] -0.085 | tipifarnib -0.035 | mubritinib 0.002

TJAP1 (UniProt Q5JTD0)
inactive: bafetinib -0.037 | [1] -0.154 | nilotinib -0.066 | [2] -0.075 | dasatinib -0.297 | [3] -0.047 | [4] -0.062 | [5] 0.209 | tipifarnib 0.112 | mubritinib -0.055

TBL1XR1 (UniProt Q9BZK7)
inactive: bafetinib 0.048 | [1] 0.063 | nilotinib -0.009 | [2] -0.006 | dasatinib 0.013 | [3] -0.011 | [4] 0.007 | [5] 0.016 | tipifarnib -0.033 | mubritinib 0.006

TCF20 (UniProt Q9UGU0)
inactive: bafetinib -0.143 | [1] 0.072 | [4] 0 | [5] -0.133

TIMM8A (UniProt O60220)
inactive: bafetinib -0.021 | [1] -0.001 | nilotinib 0.024 | [2] 0.014 | dasatinib 0.102 | [3] -0.062 | [4] 0.165 | [5] 0.239 | tipifarnib 0.123 | mubritinib 0.006

TFPI (UniProt P10646)
inactive: bafetinib 0.091 | [1] -0.117 | nilotinib 0.034 | [2] 0.055 | dasatinib 0.134 | [3] -0.062 | [4] -0.066 | [5] -0.031 | mubritinib -0.146

TKFC (UniProt Q3LXA3)
inactive: bafetinib -0.023 | [1] 0.018 | nilotinib 0.003 | [2] 0.007 | dasatinib 0.002 | [3] 0.001 | [4] 0.029 | [5] 0.034 | tipifarnib -0.05 | mubritinib 0.036

TBC1D4 (UniProt O60343)
inactive: bafetinib -0.103 | [1] -0.005 | nilotinib -0.05 | [2] -0.007 | dasatinib -0.081 | [3] 0.006 | [4] -0.002 | [5] -0.018 | tipifarnib -0.061 | mubritinib -0.004

TESC (UniProt Q96BS2)
inactive: bafetinib -0.074 | [1] -0.068 | nilotinib 0 | [2] 0.029 | dasatinib -0.028 | [3] -0.029 | [4] -0.065 | [5] -0.091 | tipifarnib -0.002 | mubritinib 0.02

TCERG1 (UniProt O14776)
inactive: bafetinib 0.03 | [1] 0.077 | nilotinib -0.093 | [2] -0.24 | dasatinib -0.26 | [3] 0.02 | [4] 0.088 | [5] 0.07 | tipifarnib -0.097 | mubritinib 0.183

TFB2M (UniProt Q9H5Q4)
inactive: bafetinib -0.046 | [1] 0.008 | nilotinib -0.043 | [2] -0.024 | dasatinib -0.099 | [3] 0.009 | [4] 0.012 | [5] -0.004 | tipifarnib -0.132 | mubritinib -0.039

TBCE (UniProt Q15813)
inactive: bafetinib 0.089 | [1] 0.07 | nilotinib -0.112 | [2] -0.182 | dasatinib -0.176 | [3] 0.016 | [4] 0.011 | [5] -0.048 | tipifarnib -0.02 | mubritinib -0.019

TFB1M (UniProt Q8WVM0)
inactive: bafetinib 0.143 | [1] -0.01 | nilotinib 0.037 | [2] 0.089 | dasatinib 0.041 | [3] 0.04 | [4] 0.04 | [5] -0.111 | tipifarnib 0.115 | mubritinib -0.001

TBC1D20 isoform 3 (UniProt Q96BZ9)
inactive: bafetinib -0.03 | [1] -0.083 | nilotinib 0.07 | [2] -0.023 | [3] 0.033 | [4] 0.121 | [5] 0.233 | tipifarnib -0.077 | mubritinib 0.129

TFDP1 (UniProt Q14186)
inactive: bafetinib -0.039 | [1] -0.045 | nilotinib -0.017 | [2] -0.14 | [3] 0.177 | [5] -0.072 | tipifarnib -0.024 | mubritinib 0.037

2 neighbouring entries from above, quoted:
TBCE (UniProt Q15813)
inactive: bafetinib 0.089 | [1] 0.07 | nilotinib -0.112 | [2] -0.182 | dasatinib -0.176 | [3] 0.016 | [4] 0.011 | [5] -0.048 | tipifarnib -0.02 | mubritinib -0.019

TFB1M (UniProt Q8WVM0)
inactive: bafetinib 0.143 | [1] -0.01 | nilotinib 0.037 | [2] 0.089 | dasatinib 0.041 | [3] 0.04 | [4] 0.04 | [5] -0.111 | tipifarnib 0.115 | mubritinib -0.001

Next part:

THG1L (UniProt Q9NWX6)
inactive: bafetinib 0.016 | [1] 0.006 | nilotinib -0.035 | [2] 0.024 | dasatinib -0.009 | [3] 0.008 | [4] 0.06 | [5] 0.031 | tipifarnib -0.011 | mubritinib 0.033

TGFBR1 isoform 2 (UniProt P36897)
inactive: bafetinib -0.009 | [1] -0.052 | nilotinib -0.049 | [2] -0.018 | [3] 0.007 | [4] -0.046 | [5] 0.001 | tipifarnib 0.017 | mubritinib -0.113

TIMM8B (UniProt Q9Y5J9)
inactive: bafetinib -0.119 | [1] -0.089 | nilotinib -0.005 | [2] -0.004 | dasatinib 0.163 | [3] -0.041 | [4] 0.181 | [5] 0.142 | tipifarnib 0.018 | mubritinib 0.019

TIMM50 isoform 2 (UniProt Q3ZCQ8)
inactive: bafetinib -0.02 | [1] -0.042 | nilotinib -0.033 | [2] 0.009 | dasatinib -0.083 | [3] -0.036 | [4] 0.062 | [5] 0.027 | tipifarnib -0.1 | mubritinib -0.012

TFIP11 (UniProt Q9UBB9)
inactive: [4] -0.21

TGM2 (UniProt A2A299)
inactive: dasatinib 0.13 | [4] -0.359 | [5] 0.059 | tipifarnib 0.137 | mubritinib -0.233
